These are yes or no findings as the source states them, for the method shown. Binding can be weak; no strength is given.
Biological target: T1, biotinylated Podocalyxin partial tail peptide … (including the ezrin binding site) (chicken)
T1 sequence (peptide, biotin, with a spacer (end not stated)): HQRFSQKKSQQRLTEELQ
Experiment: pull-down; biotinylated Podocalyxin peptides (4.3 nmol) bound to streptavidin-sepharose, incubated 2 hours at 4°C with GST-N'ezrin (equimolar to 20 µg GST) in 150 mM NaCl, 20 mM Tris (pH7), 0.2% Triton X-100; bound protein detected by anti-GST Western blot; both purified

## GST-N'ezrin (N-terminal domain of ezrin fused with GST) (domain or fragment)
  binding: binds

— publication PMC1796660
